Reference: publication PMC9428494
These are yes or no findings as the source states them, for the method shown. In cells and extracts the contact can be indirect. Some entries that bind do so weakly or less than the wild type. Tags and fused reporters may be left off the sequences shown.

By UniProt entry, the sequences of proteins in these tests, tags left out.
UniProt Q86TM6: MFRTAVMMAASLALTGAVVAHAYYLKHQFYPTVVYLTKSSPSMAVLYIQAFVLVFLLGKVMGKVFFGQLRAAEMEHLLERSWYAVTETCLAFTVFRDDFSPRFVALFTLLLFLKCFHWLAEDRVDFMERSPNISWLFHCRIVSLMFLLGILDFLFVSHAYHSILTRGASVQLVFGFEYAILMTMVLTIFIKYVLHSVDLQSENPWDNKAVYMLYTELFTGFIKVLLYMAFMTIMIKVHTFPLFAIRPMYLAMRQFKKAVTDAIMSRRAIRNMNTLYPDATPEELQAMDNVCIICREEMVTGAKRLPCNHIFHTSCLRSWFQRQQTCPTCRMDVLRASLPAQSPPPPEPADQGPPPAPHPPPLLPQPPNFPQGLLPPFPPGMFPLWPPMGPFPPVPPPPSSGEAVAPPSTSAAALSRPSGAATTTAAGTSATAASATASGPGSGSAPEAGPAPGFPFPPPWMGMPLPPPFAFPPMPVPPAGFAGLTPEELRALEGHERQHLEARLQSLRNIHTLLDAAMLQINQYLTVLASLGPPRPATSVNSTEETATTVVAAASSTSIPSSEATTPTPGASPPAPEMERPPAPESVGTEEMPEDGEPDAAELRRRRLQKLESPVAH

Target: T1, ZNF280A (human (endogenous in colorectal cancer cells; cell line not named for this experiment)) (UniProt P59817)
T1 sequence: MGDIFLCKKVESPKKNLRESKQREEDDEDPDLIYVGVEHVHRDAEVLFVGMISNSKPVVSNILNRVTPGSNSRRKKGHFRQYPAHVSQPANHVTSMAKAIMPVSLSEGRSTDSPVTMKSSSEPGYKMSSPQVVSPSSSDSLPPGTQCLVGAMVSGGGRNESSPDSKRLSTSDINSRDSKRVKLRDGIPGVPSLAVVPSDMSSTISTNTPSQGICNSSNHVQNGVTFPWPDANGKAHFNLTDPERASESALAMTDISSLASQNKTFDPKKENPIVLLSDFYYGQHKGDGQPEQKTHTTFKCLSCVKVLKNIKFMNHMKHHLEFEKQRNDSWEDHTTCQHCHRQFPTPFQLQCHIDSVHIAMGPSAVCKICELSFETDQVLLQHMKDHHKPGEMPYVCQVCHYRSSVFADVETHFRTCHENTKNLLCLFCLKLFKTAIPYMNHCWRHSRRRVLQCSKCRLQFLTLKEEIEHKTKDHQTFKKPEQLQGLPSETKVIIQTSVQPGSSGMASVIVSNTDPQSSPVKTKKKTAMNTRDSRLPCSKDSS
Experiment: co-IP; endogenous proteins; antibody captured on Dynabeads; which protein was precipitated and which cell line was used are not stated

With “E3 ubiquitin ligase SYVN1 (from UniProt Q86TM6 1-617) (enzyme)” as the substance, how does the binding read?
The binding was “binds”.
